B1: 78A3, 72A (protein, listed as Rattus norvegicus)
chain: AFDGTWKVDRNENYEKFMEKMGINVVKRKLGAHDNLKLTITQEGNKFTVKESSNFRNIDVVFELGVDFAYSAADGTEATGTWTMEGNKLVGKFKRVDNGKELIAVREISGNELIQTYTYEGVEAKRIFKKE
modifications: PEPTIDE (1)...(131) wild-type rat intestinal fatty acid binding protein
B2: 93L, 72A (protein, listed as Rattus norvegicus)
chain: B1 chain with A78L, F93L
modifications: PEPTIDE (1)...(131) wild-type rat intestinal fatty acid binding protein
B3: 82Y2, 72A (protein, listed as Rattus norvegicus)
chain: B1 chain with A78L, W82Y
modifications: PEPTIDE (1)...(131) wild-type rat intestinal fatty acid binding protein
B4: 91A, 72A (protein, listed as Rattus norvegicus)
chain: B1 chain with A78L, G91A
modifications: PEPTIDE (1)...(131) wild-type rat intestinal fatty acid binding protein
B5: 78C2, 72A (protein, listed as Rattus norvegicus)
chain: B1 chain with A78C
modifications: PEPTIDE (1)...(131) wild-type rat intestinal fatty acid binding protein
B6: 78H1, 72A (protein, listed as Rattus norvegicus)
chain: B1 chain with A78H
modifications: PEPTIDE (1)...(131) wild-type rat intestinal fatty acid binding protein
B7: 78W1, 72A (protein, listed as Rattus norvegicus)
chain: B1 chain with A78W
modifications: PEPTIDE (1)...(131) wild-type rat intestinal fatty acid binding protein
B8: 82I3, 72A (protein, listed as Rattus norvegicus)
chain: B1 chain with A78L, W82I
modifications: PEPTIDE (1)...(131) wild-type rat intestinal fatty acid binding protein
B9: 78F1, 72A (protein, listed as Rattus norvegicus)
chain: B1 chain with A78F
modifications: PEPTIDE (1)...(131) wild-type rat intestinal fatty acid binding protein
B10: 78T1, 72A (protein, listed as Rattus norvegicus)
chain: B1 chain with A78T
modifications: PEPTIDE (1)...(131) wild-type rat intestinal fatty acid binding protein
B11: 82F1, 72A (protein, listed as Rattus norvegicus)
chain: B1 chain with A78L, W82F
modifications: PEPTIDE (1)...(131) wild-type rat intestinal fatty acid binding protein
B12: 82A1, 72A (protein, listed as Rattus norvegicus)
chain: B1 chain with A78L, W82A
modifications: PEPTIDE (1)...(131) wild-type rat intestinal fatty acid binding protein
B13: 82A, 72A (protein, listed as Rattus norvegicus)
chain: B1 chain with A78L, W82A
modifications: PEPTIDE (1)...(131) wild-type rat intestinal fatty acid binding protein
B14: 78M1, 72A (protein, listed as Rattus norvegicus)
chain: B1 chain with A78M
modifications: PEPTIDE (1)...(131) wild-type rat intestinal fatty acid binding protein
B15: 82M1, 72A (protein, listed as Rattus norvegicus)
chain: B1 chain with A78L, W82M
modifications: PEPTIDE (1)...(131) wild-type rat intestinal fatty acid binding protein
B16: 82V1, 72A (protein, listed as Rattus norvegicus)
chain: B1 chain with A78L, W82V
modifications: PEPTIDE (1)...(131) wild-type rat intestinal fatty acid binding protein
B17: 78I1, 72A (protein, listed as Rattus norvegicus)
chain: B1 chain with A78I
modifications: PEPTIDE (1)...(131) wild-type rat intestinal fatty acid binding protein
B18: 93M, 72A (protein, listed as Rattus norvegicus)
chain: B1 chain with A78L, F93M
modifications: PEPTIDE (1)...(131) wild-type rat intestinal fatty acid binding protein
B19: 104R, 72A (protein, listed as Rattus norvegicus)
chain: B1 chain with A78L, A104R
modifications: PEPTIDE (1)...(131) wild-type rat intestinal fatty acid binding protein
B20: 106D3, 72A (protein, listed as Rattus norvegicus)
chain: B1 chain with A78L, R106D
modifications: PEPTIDE (1)...(131) wild-type rat intestinal fatty acid binding protein
B21: 104R1, 72A (protein, listed as Rattus norvegicus)
chain: B1 chain with A78L, A104R
modifications: PEPTIDE (1)...(131) wild-type rat intestinal fatty acid binding protein
B22: 104V1, 72A (protein, listed as Rattus norvegicus)
chain: B1 chain with A78L, A104V
modifications: PEPTIDE (1)...(131) wild-type rat intestinal fatty acid binding protein
B23: 106C2, 72A (protein, listed as Rattus norvegicus)
chain: B1 chain with A78L, R106C
modifications: PEPTIDE (1)...(131) wild-type rat intestinal fatty acid binding protein
B24: 104Y1, 72A (protein, listed as Rattus norvegicus)
chain: B1 chain with A78L, A104Y
modifications: PEPTIDE (1)...(131) wild-type rat intestinal fatty acid binding protein
B25: 106A1, 72A (protein, listed as Rattus norvegicus)
chain: B1 chain with A78L, R106A
modifications: PEPTIDE (1)...(131) wild-type rat intestinal fatty acid binding protein
B26: 104I1, 72A (protein, listed as Rattus norvegicus)
chain: B1 chain with A78L, A104I
modifications: PEPTIDE (1)...(131) wild-type rat intestinal fatty acid binding protein
B27: 106F1, 72A (protein, listed as Rattus norvegicus)
chain: B1 chain with A78L, R106F
modifications: PEPTIDE (1)...(131) wild-type rat intestinal fatty acid binding protein
B28: 104T1, 72A (protein, listed as Rattus norvegicus)
chain: B1 chain with A78L, A104T
modifications: PEPTIDE (1)...(131) wild-type rat intestinal fatty acid binding protein
B29: 104N1, 72A (protein, listed as Rattus norvegicus)
chain: B1 chain with A78L, A104N
modifications: PEPTIDE (1)...(131) wild-type rat intestinal fatty acid binding protein
B30: 104S2, 72A (protein, listed as Rattus norvegicus)
chain: B1 chain with A78L, A104S
modifications: PEPTIDE (1)...(131) wild-type rat intestinal fatty acid binding protein
B31: 106H2, 72A (protein, listed as Rattus norvegicus)
chain: B1 chain with A78L, R106H
modifications: PEPTIDE (1)...(131) wild-type rat intestinal fatty acid binding protein
B32: 106I3, 72A (protein, listed as Rattus norvegicus)
chain: B1 chain with A78L, R106I
modifications: PEPTIDE (1)...(131) wild-type rat intestinal fatty acid binding protein
B33: 104L1, 72A (protein, listed as Rattus norvegicus)
chain: B1 chain with A78L, A104L
modifications: PEPTIDE (1)...(131) wild-type rat intestinal fatty acid binding protein

Consider 33 molecules from patent publication US20060257938A1, “Method of screening for drugs that block ligand binding to a lipid binding protein” (priority 2005, published 2006).

Where a chain is given by its changes, count along the chain named.

A short description of one data set: Baseline fluorescence ratio Ro of probe in absence of analyte. As to conditions: average baseline fluorescence ratio Ro of the clone probe; substitutions with respect to SEQ ID NO: 2.
In the case of B1, the AvgOfRo is 0.25.

With B2, the AvgOfRo worked out at 0.41.

On to B3, for which the AvgOfRo is recorded as 0.33.

For the molecule B4, the AvgOfRo is 0.21.

As for B5, the AvgOfRo was found to be 0.35.

Turning to B6, the AvgOfRo is given as 0.39.

On to B7, for which the AvgOfRo amounted to 0.32.

For the molecule B8, the AvgOfRo came to 0.24.

Consider B9, for which the AvgOfRo is 0.35.

On to B10, for which the AvgOfRo is recorded as 0.40.

Regarding B11, the AvgOfRo stood at 0.27.

Turning to B12, the AvgOfRo was 0.31.

Consider B13, for which the AvgOfRo worked out at 0.41.

B14: the AvgOfRo turned out to be 0.33.

B15: the AvgOfRo is recorded as 0.27.

Regarding B16, the AvgOfRo was 0.33.

As for B17, the AvgOfRo is given as 0.56.

Take B18: the AvgOfRo is 0.33.

Staying with this data set, now noted: baseline fluorescence ratio of probe.
Turning to B19, the Ro is 0.436.

The data set is the same for the next values; noted with them: baseline fluorescence ratio of probe, no fatty acid.
On to B20, for which the AvgOfRo was 0.30.

On to B21, for which the AvgOfRo is 0.47.

B2: the Ro was determined as 0.312.

Take B19: the AvgOfRo is listed as 0.40.

Consider B22, for which the AvgOfRo is on record as 0.16.

In the case of B23, the AvgOfRo stood at 0.24.

As to B24, the AvgOfRo is reported as 0.88.

Take B25: the AvgOfRo worked out at 0.25.

Consider B26, for which the AvgOfRo turned out to be 0.16.

For the molecule B27, the AvgOfRo is on record as 0.31.

For B28, the AvgOfRo is on record as 0.22.

For the molecule B29, the AvgOfRo is 0.40.

B30: the AvgOfRo was 0.24.

With B31, the AvgOfRo was 0.31.

On to B32, for which the AvgOfRo is 0.30.

As for B33, the AvgOfRo was 0.12.
